Values quoted from earlier work as cited in patent US20230330172A1, “COMPOSITION FOR AMELIORATING UNPLEASANT STATE CAUSED BY MENSTRUATION” (NATIONAL UNIVERSITY CORPORATION KUMAMOTO UNIVERSITY, priority 2020, published 2023).
Entries after “also recorded” stand apart in the source; their conditions may differ. At least one compound was matched to its structure with a doubt left.

Assays:
[1] = system: endometrial epithelial cell

## COc1ccc(/C=C/C(=O)Nc2ccccc2C(=O)O)cc1OC [tranilast]
Dysmenorrhea patients; administered to dysmenorrhea patients
  NRS scores with respect to pain during a menstrual period: significant level of improvement was observed
Dysmenorrhea patients; functional (primary) and organic (secondary) dysmenorrhea patients
  dysmenorrhea-ameliorating effect: significant dysmenorrhea-ameliorating effect of tranilast was confirmed; also recorded: obvious dysmenorrhea-ameliorating effect is observed
[1]
  anti-EMT activity (transition from mesenchymal-like to epithelial-like phenotype): has an activity to induce the transition of the mesenchymal-like phenotype to the epithelial-like phenotype in an endometrial epithelial cell; also recorded: has an effect to cause the transition from a mesenchymal-like phenotype of an endometrial epithelial cell into an epithelial-like phenotype
